Measured data: PubChem BioAssay AID1224826 (NIAID, 2016)
Assay: 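Genes that change LPS-induced Tnf promoter activity in mouse macrophages when knocked down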 (primary screen). System: RAW264.7 G9 macrophages from mouse bearing reporters for p65 (GFP) and the Tnf promoter (mCherry). Reagents: siRNA pool against mouse genes, 100 nM. Time to read-out: 16 h of LPS stimulation, after 2 days of siRNA transfection. Conditions: bacterial lipopolysaccharide (Salmonella minnesota R595), 10 ng/ml. Measurement: 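Imaged Tnf reporter mCherry in nuclei, minus background, normalised per plate to the median and expressed as robust z-scores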. Reading the numbers: Tnf reporter robust z-score: higher = stronger Tnf promoter reporter signal after LPS; Tnf reporter intensity: higher = stronger Tnf promoter reporter signal. Rule for the call: 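Called active when robust z-score is at most -1.3, matching the median of the Tlr4 knock-down control, or over 3; control wells and wells with under 50 cells never active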. Meaning of the calls: active = Tnf reporter clearly lowered or raised; inactive = no clear change in Tnf reporter.
The whole screen tested about 17,000 reagents; shown is an unselected part. About 1,110 of them (6.6%) count as active. 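Active means lowered or raised reporter signal; replicate intensities are raw and not normalised per plate.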 Unmarked entries are inactive.

The first 4 records, ahead of the listing:
| gene knocked down | Tnf reporter robust z-score | fewer than 50 cells in well | Tnf reporter intensity, replicate 1 | Tnf reporter intensity, replicate 2 |
| --- | --- | --- | --- | --- |
| Ier3 | -0.75 | enough cells in well | 177 | 141 |
| Bco1 | 2.09 | enough cells in well | 209 | 249 |
| Vmn1r53 | -0.83 | enough cells in well | 89.1 | 61.2 |
| Grp | 2.23 | enough cells in well | 443 | 418 |

The list itself, from the start:
| gene knocked down | Tnf reporter robust z-score | fewer than 50 cells in well | Tnf reporter intensity, replicate 1 | Tnf reporter intensity, replicate 2 |
| --- | --- | --- | --- | --- |
| Ier3 | -0.75 | enough cells in well | 177 | 141 |
| Bco1 | 2.09 | enough cells in well | 209 | 249 |
| Vmn1r53 | -0.83 | enough cells in well | 89.1 | 61.2 |
| Grp | 2.23 | enough cells in well | 443 | 418 |
| C730034F03Rik | 2.68 | enough cells in well | 306 | 345 |
| Lrrc46 | – | fewer than 50 cells per well; well left out of calls | 91.5 | 59.5 |
| Gm56926 | -0.38 | enough cells in well | 179 | 182 |
| Cse1l | -1.47 (active) | enough cells in well | 112 | 109 |
| Lyn | -1.26 | enough cells in well | 203 | 91.4 |
| Zfp711 | -0.96 | enough cells in well | 129 | 108 |
| Pxmp2 | 0.31 | enough cells in well | 383 | 198 |
| Slc44a3 | 1.35 | enough cells in well | 313 | 287 |
| Aqp5 | -0.63 | enough cells in well | 128 | 139 |
| Cbll1 | 0.47 | enough cells in well | 191 | 203 |
| Hikeshi | -1.04 | enough cells in well | 158 | 53.3 |
| 3010003L21Rik | – | fewer than 50 cells per well; well left out of calls | 158 | 47.9 |
| Pglyrp4 | 0.64 | enough cells in well | 146 | 193 |
| Cobll1 | -0.51 | enough cells in well | 128 | 210 |
| Gng10 | 0.17 | enough cells in well | 258 | 174 |
| Oas3 | 0.41 | enough cells in well | 363 | 137 |
| Spsb1 | -0.35 | enough cells in well | 184 | 30.5 |
| Dlx6 | -0.68 | enough cells in well | 185 | 152 |
| Or10q1 | -0.41 | enough cells in well | 179 | 87.4 |
| Cyp2c37 | -0.98 | enough cells in well | 142 | 151 |
| Fam163a | -0.46 | enough cells in well | 143 | 131 |
| Srek1ip1 | -0.83 | enough cells in well | 143 | 40.7 |
| Adad1 | 2.05 | enough cells in well | 175 | 178 |
| Serpina9 | 0.42 | enough cells in well | 122 | 108 |
| Or5b119 | 0.41 | enough cells in well | 196 | 144 |
| Mrps24 | -0.62 | enough cells in well | 174 | 76.4 |
| Tomm7 | – | fewer than 50 cells per well; well left out of calls | 0 | 51 |
| 1700082M22Rik | – | fewer than 50 cells per well; well left out of calls | 96.8 | 53.1 |
| Or6x1 | 2.38 | enough cells in well | 278 | 228 |
| Slco4c1 | – | fewer than 50 cells per well; well left out of calls | 68.9 | 64.5 |
| Jrk | -0.07 | enough cells in well | 195 | 157 |
| Nmral1 | -0.34 | enough cells in well | 219 | 71.6 |
| Ttll3 | 3.58 (active) | enough cells in well | 374 | 85.2 |
| Kcnq2 | 0.19 | enough cells in well | 262 | 155 |
| Hhex | 0.91 | enough cells in well | 303 | 253 |
| Gsta3 | -0.95 | enough cells in well | 207 | 84.3 |
